Measurements from the supplement of paper PMC12823440, “Inhibitors supercharge kinase turnover through native proteolytic circuits” (Nature, 2025).
This is one part of the list. Hit calls seldom repeat between salt and free forms of one compound.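 In K562 cells expressing nanoluciferase-fused kinases, luminescence was recorded at 4 h intervals between 2 and 18 h, normalized as percent of control with DMSO at 100% and a positive control at 0%. A significant (2 sigma) signal drop marks a time point as decreased. The authors' rule for a hit is not shown and takes in more than the number of time points.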

Amino acid sequences for entries named in this document (tags omitted). A change or cut given only in a name is not applied to a line headed by its entry.
UniProt Q9UBF8: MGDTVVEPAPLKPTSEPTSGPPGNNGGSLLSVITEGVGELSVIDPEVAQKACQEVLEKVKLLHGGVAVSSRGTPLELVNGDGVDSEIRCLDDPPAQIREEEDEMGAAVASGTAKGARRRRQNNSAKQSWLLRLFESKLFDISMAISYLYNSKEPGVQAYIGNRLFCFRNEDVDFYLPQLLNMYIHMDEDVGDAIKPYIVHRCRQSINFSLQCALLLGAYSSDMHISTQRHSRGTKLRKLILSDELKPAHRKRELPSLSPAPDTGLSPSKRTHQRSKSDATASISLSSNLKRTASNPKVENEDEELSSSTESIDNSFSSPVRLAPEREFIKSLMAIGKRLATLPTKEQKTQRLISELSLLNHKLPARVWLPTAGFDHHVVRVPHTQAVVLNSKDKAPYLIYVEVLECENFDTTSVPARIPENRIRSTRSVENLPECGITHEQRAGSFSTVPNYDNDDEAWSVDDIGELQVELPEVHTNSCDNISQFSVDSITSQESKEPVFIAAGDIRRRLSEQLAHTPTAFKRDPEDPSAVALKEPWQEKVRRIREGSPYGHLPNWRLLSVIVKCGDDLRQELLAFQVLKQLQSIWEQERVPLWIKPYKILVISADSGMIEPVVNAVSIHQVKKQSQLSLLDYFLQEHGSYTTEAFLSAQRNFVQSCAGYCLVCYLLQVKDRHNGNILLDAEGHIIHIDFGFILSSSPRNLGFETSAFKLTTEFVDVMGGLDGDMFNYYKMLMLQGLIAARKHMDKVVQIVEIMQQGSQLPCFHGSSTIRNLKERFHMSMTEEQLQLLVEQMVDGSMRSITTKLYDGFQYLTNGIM
UniProt P07949, whole entry, looked up: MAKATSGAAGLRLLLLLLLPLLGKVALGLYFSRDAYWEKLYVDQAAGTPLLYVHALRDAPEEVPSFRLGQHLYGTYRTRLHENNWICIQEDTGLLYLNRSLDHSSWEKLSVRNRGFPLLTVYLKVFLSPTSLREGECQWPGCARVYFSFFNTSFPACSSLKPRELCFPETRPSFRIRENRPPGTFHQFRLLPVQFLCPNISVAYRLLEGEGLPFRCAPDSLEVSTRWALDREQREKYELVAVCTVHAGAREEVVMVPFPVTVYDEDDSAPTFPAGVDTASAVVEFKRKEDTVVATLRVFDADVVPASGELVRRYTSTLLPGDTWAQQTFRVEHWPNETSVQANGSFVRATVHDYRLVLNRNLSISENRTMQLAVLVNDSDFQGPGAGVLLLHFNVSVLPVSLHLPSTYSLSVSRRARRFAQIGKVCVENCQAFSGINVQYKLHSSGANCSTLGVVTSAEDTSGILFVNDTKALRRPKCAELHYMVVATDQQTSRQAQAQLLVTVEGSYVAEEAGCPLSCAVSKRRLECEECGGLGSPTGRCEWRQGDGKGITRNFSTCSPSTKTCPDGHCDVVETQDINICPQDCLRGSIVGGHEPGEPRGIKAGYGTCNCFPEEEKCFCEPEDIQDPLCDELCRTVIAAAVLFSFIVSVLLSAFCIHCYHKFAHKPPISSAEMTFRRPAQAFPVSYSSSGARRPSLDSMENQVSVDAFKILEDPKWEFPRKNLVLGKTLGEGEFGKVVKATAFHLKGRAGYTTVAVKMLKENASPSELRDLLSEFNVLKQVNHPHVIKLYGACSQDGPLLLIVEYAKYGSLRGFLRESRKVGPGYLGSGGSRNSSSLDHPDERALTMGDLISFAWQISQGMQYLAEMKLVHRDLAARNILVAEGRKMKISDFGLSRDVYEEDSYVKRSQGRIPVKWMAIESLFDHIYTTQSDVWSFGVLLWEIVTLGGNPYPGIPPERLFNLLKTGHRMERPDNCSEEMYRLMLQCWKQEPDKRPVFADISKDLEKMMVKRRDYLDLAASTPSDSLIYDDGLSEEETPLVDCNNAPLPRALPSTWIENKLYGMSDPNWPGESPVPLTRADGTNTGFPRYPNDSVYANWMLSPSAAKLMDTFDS
UniProt P53350, whole entry: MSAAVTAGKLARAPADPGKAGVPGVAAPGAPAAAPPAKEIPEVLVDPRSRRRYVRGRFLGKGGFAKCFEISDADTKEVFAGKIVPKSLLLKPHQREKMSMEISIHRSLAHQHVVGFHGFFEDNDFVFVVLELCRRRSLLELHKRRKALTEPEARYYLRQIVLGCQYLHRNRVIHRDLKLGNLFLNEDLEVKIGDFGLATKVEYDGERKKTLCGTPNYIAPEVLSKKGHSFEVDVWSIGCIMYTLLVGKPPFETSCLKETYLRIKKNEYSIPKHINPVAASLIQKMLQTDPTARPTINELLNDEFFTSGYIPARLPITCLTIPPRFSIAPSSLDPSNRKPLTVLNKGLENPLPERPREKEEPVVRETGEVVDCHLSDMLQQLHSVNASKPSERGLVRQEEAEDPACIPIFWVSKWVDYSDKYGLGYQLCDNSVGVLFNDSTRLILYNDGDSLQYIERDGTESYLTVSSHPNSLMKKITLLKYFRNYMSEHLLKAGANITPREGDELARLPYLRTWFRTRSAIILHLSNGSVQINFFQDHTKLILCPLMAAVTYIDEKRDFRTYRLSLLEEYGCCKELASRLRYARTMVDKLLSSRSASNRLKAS
UniProt Q8IWU2: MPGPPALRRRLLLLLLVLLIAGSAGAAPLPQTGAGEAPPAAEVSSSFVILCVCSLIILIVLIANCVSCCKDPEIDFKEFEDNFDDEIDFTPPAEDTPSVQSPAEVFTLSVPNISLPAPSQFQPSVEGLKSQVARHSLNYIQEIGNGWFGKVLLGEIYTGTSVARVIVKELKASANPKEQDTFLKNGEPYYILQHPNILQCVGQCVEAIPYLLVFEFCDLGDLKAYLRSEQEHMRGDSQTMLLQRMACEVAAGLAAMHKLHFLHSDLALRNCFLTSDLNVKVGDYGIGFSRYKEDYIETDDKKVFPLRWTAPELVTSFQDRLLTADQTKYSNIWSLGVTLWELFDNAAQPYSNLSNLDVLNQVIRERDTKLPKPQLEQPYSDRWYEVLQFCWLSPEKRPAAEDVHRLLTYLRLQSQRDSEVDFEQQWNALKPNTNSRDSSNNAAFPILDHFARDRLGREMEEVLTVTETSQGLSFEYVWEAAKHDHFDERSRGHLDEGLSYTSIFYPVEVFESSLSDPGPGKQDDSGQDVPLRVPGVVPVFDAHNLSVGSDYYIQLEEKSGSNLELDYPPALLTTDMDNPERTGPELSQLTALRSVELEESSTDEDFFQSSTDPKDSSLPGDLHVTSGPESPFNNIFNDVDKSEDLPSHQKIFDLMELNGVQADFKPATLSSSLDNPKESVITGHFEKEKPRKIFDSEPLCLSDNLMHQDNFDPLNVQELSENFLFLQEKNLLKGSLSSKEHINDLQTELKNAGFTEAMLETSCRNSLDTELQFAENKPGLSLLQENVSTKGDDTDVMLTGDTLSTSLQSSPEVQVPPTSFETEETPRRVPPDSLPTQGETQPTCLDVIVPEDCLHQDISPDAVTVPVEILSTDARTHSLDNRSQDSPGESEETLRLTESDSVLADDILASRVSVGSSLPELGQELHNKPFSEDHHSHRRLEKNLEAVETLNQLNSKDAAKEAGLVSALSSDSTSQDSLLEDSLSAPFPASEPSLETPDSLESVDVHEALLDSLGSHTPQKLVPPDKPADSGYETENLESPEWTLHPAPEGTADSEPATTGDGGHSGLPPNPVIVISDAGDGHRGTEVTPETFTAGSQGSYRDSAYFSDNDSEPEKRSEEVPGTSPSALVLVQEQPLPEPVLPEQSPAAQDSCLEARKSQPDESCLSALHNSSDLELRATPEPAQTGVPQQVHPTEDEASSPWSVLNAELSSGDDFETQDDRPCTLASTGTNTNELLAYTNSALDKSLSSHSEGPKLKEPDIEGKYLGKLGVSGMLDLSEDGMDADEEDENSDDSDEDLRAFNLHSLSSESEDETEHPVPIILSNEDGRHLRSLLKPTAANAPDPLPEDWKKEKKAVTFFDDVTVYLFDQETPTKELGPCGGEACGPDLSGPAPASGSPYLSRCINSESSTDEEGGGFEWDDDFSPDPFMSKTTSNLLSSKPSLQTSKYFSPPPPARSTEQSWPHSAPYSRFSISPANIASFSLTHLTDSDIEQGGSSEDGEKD
UniProt Q16288, whole entry, looked up: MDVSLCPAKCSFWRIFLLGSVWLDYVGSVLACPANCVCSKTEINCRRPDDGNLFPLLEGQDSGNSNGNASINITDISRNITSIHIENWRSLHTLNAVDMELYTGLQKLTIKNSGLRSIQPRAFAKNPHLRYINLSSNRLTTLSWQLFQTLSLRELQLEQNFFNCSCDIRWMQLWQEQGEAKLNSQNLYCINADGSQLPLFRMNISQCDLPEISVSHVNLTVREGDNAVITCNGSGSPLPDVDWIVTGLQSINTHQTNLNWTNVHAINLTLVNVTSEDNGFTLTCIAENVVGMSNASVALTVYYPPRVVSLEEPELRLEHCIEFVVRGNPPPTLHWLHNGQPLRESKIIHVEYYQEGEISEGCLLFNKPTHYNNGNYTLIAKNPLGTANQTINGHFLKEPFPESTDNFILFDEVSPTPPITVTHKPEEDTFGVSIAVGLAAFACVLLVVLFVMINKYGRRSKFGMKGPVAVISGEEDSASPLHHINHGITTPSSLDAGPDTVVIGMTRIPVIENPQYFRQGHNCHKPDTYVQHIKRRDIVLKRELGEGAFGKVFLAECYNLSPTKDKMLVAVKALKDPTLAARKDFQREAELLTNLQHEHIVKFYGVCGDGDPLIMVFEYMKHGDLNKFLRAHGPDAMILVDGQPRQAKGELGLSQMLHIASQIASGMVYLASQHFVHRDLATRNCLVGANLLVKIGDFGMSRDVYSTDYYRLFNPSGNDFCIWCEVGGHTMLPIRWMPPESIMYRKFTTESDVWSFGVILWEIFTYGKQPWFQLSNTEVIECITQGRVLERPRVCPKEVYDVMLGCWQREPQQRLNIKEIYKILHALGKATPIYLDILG
UniProt P49137, whole entry, looked up: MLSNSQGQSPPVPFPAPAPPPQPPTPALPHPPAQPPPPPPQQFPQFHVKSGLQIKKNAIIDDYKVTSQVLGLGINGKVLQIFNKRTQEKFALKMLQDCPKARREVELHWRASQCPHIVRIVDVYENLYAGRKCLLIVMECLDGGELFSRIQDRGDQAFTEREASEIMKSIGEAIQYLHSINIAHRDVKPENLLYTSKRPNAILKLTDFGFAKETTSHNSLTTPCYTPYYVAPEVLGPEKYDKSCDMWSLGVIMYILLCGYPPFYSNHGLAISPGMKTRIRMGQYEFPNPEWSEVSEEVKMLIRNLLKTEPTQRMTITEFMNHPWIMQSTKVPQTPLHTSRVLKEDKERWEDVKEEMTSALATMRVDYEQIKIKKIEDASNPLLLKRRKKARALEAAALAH
UniProt Q13546: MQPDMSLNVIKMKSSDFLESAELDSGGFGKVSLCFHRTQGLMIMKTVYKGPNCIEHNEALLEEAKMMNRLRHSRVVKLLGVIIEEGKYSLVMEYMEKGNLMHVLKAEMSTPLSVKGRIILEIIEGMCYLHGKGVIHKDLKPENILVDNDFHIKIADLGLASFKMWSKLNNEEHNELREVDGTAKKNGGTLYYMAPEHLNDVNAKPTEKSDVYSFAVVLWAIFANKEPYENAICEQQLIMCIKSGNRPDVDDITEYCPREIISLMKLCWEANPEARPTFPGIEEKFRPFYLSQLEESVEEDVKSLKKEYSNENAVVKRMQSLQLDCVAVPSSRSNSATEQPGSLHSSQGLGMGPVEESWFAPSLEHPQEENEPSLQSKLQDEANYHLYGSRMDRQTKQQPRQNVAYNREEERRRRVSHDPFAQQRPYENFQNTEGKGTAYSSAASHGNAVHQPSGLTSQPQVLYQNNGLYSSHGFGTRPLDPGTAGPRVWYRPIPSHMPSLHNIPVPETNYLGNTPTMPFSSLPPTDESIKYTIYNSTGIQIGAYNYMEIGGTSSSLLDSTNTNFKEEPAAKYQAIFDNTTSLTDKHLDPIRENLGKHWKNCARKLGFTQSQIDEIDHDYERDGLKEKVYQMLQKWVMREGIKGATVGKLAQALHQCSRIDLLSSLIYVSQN
UniProt P06239: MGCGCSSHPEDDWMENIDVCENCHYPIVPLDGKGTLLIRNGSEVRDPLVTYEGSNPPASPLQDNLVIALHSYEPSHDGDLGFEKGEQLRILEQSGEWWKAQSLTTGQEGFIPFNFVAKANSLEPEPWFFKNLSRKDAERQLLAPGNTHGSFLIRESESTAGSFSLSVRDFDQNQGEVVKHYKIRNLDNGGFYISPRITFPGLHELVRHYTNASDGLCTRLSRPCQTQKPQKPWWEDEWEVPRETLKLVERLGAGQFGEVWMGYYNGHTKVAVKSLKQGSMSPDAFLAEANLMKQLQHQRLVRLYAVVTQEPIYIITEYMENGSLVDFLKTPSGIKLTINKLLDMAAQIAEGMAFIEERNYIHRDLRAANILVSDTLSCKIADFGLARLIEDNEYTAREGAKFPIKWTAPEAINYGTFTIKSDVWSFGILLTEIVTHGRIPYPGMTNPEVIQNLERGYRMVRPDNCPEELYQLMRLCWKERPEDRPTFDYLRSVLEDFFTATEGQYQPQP

Assays:
Experiment in all cases: number of time points (of 5) at which kinase-Nluc abundance scored as decreased, DMSO-normalised (count); higher = more persistent destabilization
Pictilisib = compound: CS(=O)(=O)N1CCN(Cc2cc3nc(-c4cccc5[nH]ncc45)nc(N4CCOCC4)c3s2)CC1 [Pictilisib]; settings: 10 µM; K562; 2-18 h
[1] = compound: C[C@@H](N)[C@H]1CC[C@H](C(=O)Nc2ccncc2)CC1; settings: 10 µM; K562; 2-18 h
[2] = compound: C[C@@H](N)c1ccc(C(=O)Nc2ccnc3[nH]ccc23)cc1; settings: 10 µM; K562; 2-18 h
[3] = compound: C[C@H](CCC(=O)NCCS(=O)(=O)O)[C@H]1CC[C@H]2[C@@H]3[C@@H](O)C[C@@H]4C[C@H](O)CC[C@]4(C)[C@H]3CC[C@]12C [Tauroursodeoxycholate (dihydrate)]; settings: 10 µM; K562; 2-18 h
[4] = compound: C[C@H](CCC(=O)NCCS(=O)(=O)O)[C@H]1CC[C@H]2[C@@H]3[C@@H](O)C[C@@H]4C[C@H](O)CC[C@]4(C)[C@H]3CC[C@]12C [Tauroursodeoxycholate (sodium)]; settings: 10 µM; K562; 2-18 h
[5] = compound: C[C@H](Nc1cc(-c2cnn(C)c2)cc(Nc2cnccn2)n1)c1ccc(F)cc1 [Ilginatinib hydrochloride]; settings: 2.5 µM; K562; 2-18 h
Ilginatinib = compound: C[C@H](Nc1cc(-c2cnn(C)c2)cc(Nc2cnccn2)n1)c1ccc(F)cc1 [Ilginatinib]; settings: 2.5 µM; K562; 2-18 h
[6] = compound: C[S+]([O-])c1ccc(-c2nc(-c3ccc(F)cc3)c(-c3ccncc3)[nH]2)cc1; settings: 10 µM; K562; 2-18 h
Toceranib (phosphate) = compound: Cc1[nH]c(/C=C2\C(=O)Nc3ccc(F)cc32)c(C)c1C(=O)NCCN1CCCC1 [Toceranib (phosphate)]; settings: 2 µM; K562; 2-18 h
Toceranib = compound: Cc1[nH]c(/C=C2\C(=O)Nc3ccc(F)cc32)c(C)c1C(=O)NCCN1CCCC1 [Toceranib]; settings: 2 µM; K562; 2-18 h
[7] = compound: Cc1cc(Nc2ncc(Cl)c(Nc3ccccc3S(=O)(=O)C(C)C)n2)c(OC(C)C)cc1C1CCNCC1 [Ceritinib dihydrochloride]; settings: 2.5 µM; K562; 2-18 h
Ceritinib = compound: Cc1cc(Nc2ncc(Cl)c(Nc3ccccc3S(=O)(=O)C(C)C)n2)c(OC(C)C)cc1C1CCNCC1 [Ceritinib]; settings: 2.5 µM; K562; 2-18 h
Masitinib (mesylate) = compound: Cc1ccc(NC(=O)c2ccc(CN3CCN(C)CC3)cc2)cc1Nc1nc(-c2cccnc2)cs1 [Masitinib (mesylate)]; settings: 2.5 µM; K562; 2-18 h
Masitinib = compound: Cc1ccc(NC(=O)c2ccc(CN3CCN(C)CC3)cc2)cc1Nc1nc(-c2cccnc2)cs1 [Masitinib]; settings: 2.5 µM; K562; 2-18 h
[8] = compound: Cc1cccc(-c2[nH]c(CNc3ccccc3F)nc2-c2ccc3ncnn3c2)n1 [Vactosertib (Hydrochloride)]; settings: 2.5 µM; K562; 2-18 h
Vactosertib = compound: Cc1cccc(-c2[nH]c(CNc3ccccc3F)nc2-c2ccc3ncnn3c2)n1 [Vactosertib]; settings: 2.5 µM; K562; 2-18 h
Apilimod (mesylate) = compound: Cc1cccc(/C=N/Nc2cc(N3CCOCC3)nc(OCCc3ccccn3)n2)c1 [Apilimod (mesylate)]; settings: 10 µM; K562; 2-18 h
Apilimod = compound: Cc1cccc(/C=N/Nc2cc(N3CCOCC3)nc(OCCc3ccccn3)n2)c1 [Apilimod]; settings: 2.5 µM; K562; 2-18 h
[9] = compound: Cc1nc2ccc(-n3c(-c4nonc4N)nc4cnccc43)cc2[nH]1; settings: 10 µM; K562; 2-18 h
AT7867 (dihydrochloride) = compound: Clc1ccc(C2(c3ccc(-c4cn[nH]c4)cc3)CCNCC2)cc1 [AT7867 (dihydrochloride)]; settings: 2.5 µM; K562; 2-18 h

Row | Target | number of time points (Pictilisib) | number of time points [1] | number of time points [2] | number of time points [3] | number of time points [4] | number of time points [5] | number of time points (Ilginatinib) | number of time points [6] | number of time points (Toceranib (phosphate)) | number of time points (Toceranib) | number of time points [7] | number of time points (Ceritinib) | number of time points (Masitinib (mesylate)) | number of time points (Masitinib) | number of time points [8] | number of time points (Vactosertib) | number of time points (Apilimod (mesylate)) | number of time points (Apilimod) | number of time points [9] | number of time points (AT7867 (dihydrochloride))
1 | PIK4CB (UniProt Q9UBF8) | 0 | 0 | 0 | 0 | 0 | 0 | 0 | 0 | 0 | 0 | 0 | 0 | 0 | 0 | 0 | 0 | 0 | 0 | 0 | 0
2 | MAP4K2 (UniProt Q12851) | 0 | 0 | 0 | 0 | 0 | 0 | 0 | 0 | 0 | 0 | 0 | 0 | 0 | 0 | 0 | 0 | 0 | 0 | 0 | 0
3 | FYN (UniProt P06241) | 0 | 0 | 0 | 0 | 0 | 1 | 0 | 0 | 0 | 0 | 0 | 0 | 1 | 0 | 0 | 0 | 0 | 0 | 0 | 0
4 | IRAK3 (UniProt Q9Y616) | 0 | 0 | 0 | 0 | 0 | 4 | 3 | 0 | 0 | 0 | 0 | 0 | 0 | 0 | 0 | 0 | 0 | 0 | 0 | 0
5 | CDK2 (UniProt P24941) | 0 | 0 | – | 0 | 0 | 0 | 0 | 0 | 0 | 0 | 0 | 0 | 0 | 0 | 0 | 0 | 0 | 0 | 0 | 0
6 | RET (UniProt P07949) | 0 | – | 0 | 0 | 0 | 1 | 2 | 0 | 0 | 0 | 0 | 0 | 0 | 1 | 0 | 0 | 0 | 0 | 0 | 0
7 | EGFR (UniProt P00533) | 0 | – | 0 | 0 | 0 | 0 | 1 | – | 0 | 0 | 0 | 0 | 1 | 0 | 0 | 0 | 0 | 0 | 0 | 0
8 | PLK1 (UniProt P53350) | 0 | 0 | 0 | 0 | 0 | 0 | 0 | 0 | 0 | 0 | 0 | 0 | 0 | 1 | 0 | 0 | 0 | 0 | 0 | 0
9 | EGFR_L861Q (UniProt P00533) | 0 | – | 0 | 0 | 0 | 5 | 2 | – | 0 | 0 | 0 | 0 | 2 | 1 | 0 | 0 | 0 | 0 | 0 | 0
10 | BMX (UniProt P51813) | 0 | 0 | – | 0 | 0 | 0 | 3 | 0 | 0 | 0 | 0 | 0 | 1 | 1 | 0 | 0 | 0 | 0 | 0 | 0
11 | LMTK2 (UniProt Q8IWU2) | 0 | 0 | – | 0 | 0 | 2 | 1 | 0 | 0 | 0 | 0 | 0 | 0 | 0 | 0 | 0 | 0 | 0 | 0 | 0
12 | PTK2B (UniProt Q14289) | 0 | – | 0 | 0 | 0 | 0 | 0 | 0 | 0 | 0 | 0 | 0 | 0 | 0 | 0 | 0 | 0 | 0 | 0 | 0
13 | NTRK3 (UniProt Q16288) | 0 | 0 | 0 | 0 | 0 | 1 | 1 | 0 | 0 | 0 | 0 | 0 | 0 | 1 | – | – | 0 | 0 | 0 | 0
14 | PTK2 (UniProt Q05397) | 0 | 0 | 0 | 0 | 0 | 0 | 0 | 0 | 0 | 0 | 0 | 0 | 2 | 1 | 0 | 0 | 0 | 0 | 0 | 0
15 | EGFR_G719S_T790M (UniProt P00533) | 0 | – | 0 | 0 | 0 | 2 | 1 | – | 0 | 0 | 0 | 0 | 0 | 0 | 0 | 0 | 0 | 0 | 0 | 0
16 | MAPKAPK2 (UniProt P49137) | 0 | 0 | 0 | 0 | 0 | 0 | 0 | 0 | 0 | 0 | 0 | 0 | 0 | 0 | 0 | 0 | 0 | 0 | 0 | 0
17 | RIPK1 (UniProt Q13546) | 0 | 0 | – | 0 | 0 | 3 | 1 | 0 | 0 | 0 | 0 | 0 | 1 | 1 | 0 | 0 | 0 | 0 | 0 | 0
18 | EGFR_G719S (UniProt P00533) | 0 | – | 0 | 0 | 0 | 2 | 2 | – | 0 | 0 | 0 | 0 | 0 | 1 | 0 | 0 | 0 | 0 | 0 | 0
19 | ZAK (UniProt Q9NYL2) | 0 | – | 0 | 0 | 0 | 0 | 0 | 0 | 0 | 0 | 0 | 0 | 0 | 0 | 0 | 0 | – | – | 0 | 0
20 | CDK5 (UniProt Q00535) | 0 | 0 | 0 | 0 | 0 | 0 | 0 | 0 | 0 | 0 | 0 | 0 | 0 | 0 | 0 | 0 | 0 | 0 | 0 | 0
21 | LCK (UniProt P06239) | 0 | – | 0 | 0 | 0 | 0 | 0 | 0 | 0 | 0 | 0 | 0 | 0 | 0 | 0 | 0 | 0 | 0 | 0 | 0
22 | EGFR_T790M (UniProt P00533) | 0 | – | 0 | 0 | 0 | 0 | 0 | – | 0 | 0 | 0 | 2 | 0 | 0 | 0 | – | 0 | 0 | 0 | 0
23 | LIMK2 (UniProt P53671) | 0 | – | 0 | 0 | 0 | 0 | 0 | 0 | 0 | 0 | 0 | 0 | 1 | 1 | 0 | 0 | 0 | 0 | 0 | 0
24 | PRKCA (UniProt P17252) | 0 | – | 0 | 0 | 0 | 0 | 0 | 0 | 0 | 0 | 0 | 0 | 0 | 0 | 0 | 1 | 0 | 0 | 0 | 0
25 | EGFR_L718V (UniProt P00533) | 0 | – | 0 | 0 | 0 | 0 | 1 | – | 0 | 0 | 0 | 0 | 0 | 0 | 0 | 0 | 0 | 0 | 0 | 0
26 | MAP2K2 (UniProt P36507) | 0 | 0 | 0 | 0 | 0 | 0 | 0 | 0 | 0 | 0 | 0 | 0 | 0 | 0 | 0 | 0 | 0 | 0 | 0 | 0
27 | RAF1 (UniProt P04049) | 0 | 0 | 0 | 0 | 0 | 2 | 2 | 0 | 0 | 0 | 0 | 0 | 1 | 2 | 0 | 0 | 1 | 0 | 0 | 0
28 | MAP2K1 (UniProt Q02750) | 0 | 0 | 0 | 0 | 0 | 0 | 0 | 0 | 0 | 0 | 0 | 0 | 0 | 0 | 0 | 0 | 0 | 0 | 0 | 0
29 | EGFR_L858R (UniProt P00533) | 0 | – | 0 | 0 | 0 | 1 | 1 | – | 0 | 0 | 0 | 0 | 1 | 1 | 0 | 0 | 0 | 0 | 0 | 0

Part of the list above, set out differently.
Row	Target	number of time points (Pictilisib)	number of time points [1]	number of time points [2]	number of time points [3]	number of time points [4]	number of time points [5]	number of time points (Ilginatinib)	number of time points [6]	number of time points (Toceranib (phosphate))	number of time points (Toceranib)	number of time points [7]	number of time points (Ceritinib)	number of time points (Masitinib (mesylate))	number of time points (Masitinib)	number of time points [8]	number of time points (Vactosertib)	number of time points (Apilimod (mesylate))	number of time points (Apilimod)	number of time points [9]	number of time points (AT7867 (dihydrochloride))
22	EGFR_T790M (UniProt P00533)	0	–	0	0	0	0	0	–	0	0	0	2	0	0	0	–	0	0	0	0
23	LIMK2 (UniProt P53671)	0	–	0	0	0	0	0	0	0	0	0	0	1	1	0	0	0	0	0	0
